Laboratory results as given in article PMC10603047.
These are yes or no findings as the source states them, for the method shown. In cells and extracts the contact can be indirect. Some results given as binding are weak or reduced against the parent protein; the word gives no strength.

The chains behind the UniProt entries cited, without tags or fusion partners.
UniProt P19474: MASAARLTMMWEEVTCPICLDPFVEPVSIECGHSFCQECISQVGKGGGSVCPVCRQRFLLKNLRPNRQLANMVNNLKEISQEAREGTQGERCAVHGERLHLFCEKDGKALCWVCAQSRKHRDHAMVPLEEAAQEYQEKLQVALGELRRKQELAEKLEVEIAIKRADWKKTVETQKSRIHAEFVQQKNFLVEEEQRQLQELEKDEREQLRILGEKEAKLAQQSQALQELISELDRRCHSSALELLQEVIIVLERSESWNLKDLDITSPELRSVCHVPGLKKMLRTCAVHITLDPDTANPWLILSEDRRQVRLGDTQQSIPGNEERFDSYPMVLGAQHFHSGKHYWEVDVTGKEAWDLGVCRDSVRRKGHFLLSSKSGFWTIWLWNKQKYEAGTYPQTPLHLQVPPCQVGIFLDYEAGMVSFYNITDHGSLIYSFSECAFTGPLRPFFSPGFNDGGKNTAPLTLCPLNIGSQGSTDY
UniProt P46937: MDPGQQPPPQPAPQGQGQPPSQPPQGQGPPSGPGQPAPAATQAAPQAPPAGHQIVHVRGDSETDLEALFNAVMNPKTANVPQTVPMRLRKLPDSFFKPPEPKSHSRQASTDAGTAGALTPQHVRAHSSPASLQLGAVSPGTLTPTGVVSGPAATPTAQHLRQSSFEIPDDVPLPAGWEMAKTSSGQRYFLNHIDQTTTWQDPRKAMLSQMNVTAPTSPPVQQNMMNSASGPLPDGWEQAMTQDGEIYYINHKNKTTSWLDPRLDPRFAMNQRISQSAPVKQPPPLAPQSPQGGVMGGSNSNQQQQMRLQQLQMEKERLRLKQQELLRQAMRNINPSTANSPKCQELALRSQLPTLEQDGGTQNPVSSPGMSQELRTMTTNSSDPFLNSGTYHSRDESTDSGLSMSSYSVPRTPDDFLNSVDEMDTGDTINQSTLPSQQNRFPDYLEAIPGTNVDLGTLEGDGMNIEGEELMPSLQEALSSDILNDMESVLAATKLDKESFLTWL
UniProt P46938: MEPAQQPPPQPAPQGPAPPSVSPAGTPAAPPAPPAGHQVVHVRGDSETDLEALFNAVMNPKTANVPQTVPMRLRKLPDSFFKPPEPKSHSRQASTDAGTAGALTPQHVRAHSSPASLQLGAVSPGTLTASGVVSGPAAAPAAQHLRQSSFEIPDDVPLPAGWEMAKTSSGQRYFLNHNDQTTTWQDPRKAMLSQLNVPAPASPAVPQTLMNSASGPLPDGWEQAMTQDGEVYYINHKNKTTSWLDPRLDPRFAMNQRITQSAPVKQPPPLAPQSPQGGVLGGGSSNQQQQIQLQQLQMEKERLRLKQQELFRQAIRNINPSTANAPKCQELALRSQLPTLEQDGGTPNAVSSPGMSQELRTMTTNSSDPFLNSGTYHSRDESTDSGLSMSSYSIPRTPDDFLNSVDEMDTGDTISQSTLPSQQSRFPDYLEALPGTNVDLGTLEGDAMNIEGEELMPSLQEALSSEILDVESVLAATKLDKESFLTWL
UniProt Q02248: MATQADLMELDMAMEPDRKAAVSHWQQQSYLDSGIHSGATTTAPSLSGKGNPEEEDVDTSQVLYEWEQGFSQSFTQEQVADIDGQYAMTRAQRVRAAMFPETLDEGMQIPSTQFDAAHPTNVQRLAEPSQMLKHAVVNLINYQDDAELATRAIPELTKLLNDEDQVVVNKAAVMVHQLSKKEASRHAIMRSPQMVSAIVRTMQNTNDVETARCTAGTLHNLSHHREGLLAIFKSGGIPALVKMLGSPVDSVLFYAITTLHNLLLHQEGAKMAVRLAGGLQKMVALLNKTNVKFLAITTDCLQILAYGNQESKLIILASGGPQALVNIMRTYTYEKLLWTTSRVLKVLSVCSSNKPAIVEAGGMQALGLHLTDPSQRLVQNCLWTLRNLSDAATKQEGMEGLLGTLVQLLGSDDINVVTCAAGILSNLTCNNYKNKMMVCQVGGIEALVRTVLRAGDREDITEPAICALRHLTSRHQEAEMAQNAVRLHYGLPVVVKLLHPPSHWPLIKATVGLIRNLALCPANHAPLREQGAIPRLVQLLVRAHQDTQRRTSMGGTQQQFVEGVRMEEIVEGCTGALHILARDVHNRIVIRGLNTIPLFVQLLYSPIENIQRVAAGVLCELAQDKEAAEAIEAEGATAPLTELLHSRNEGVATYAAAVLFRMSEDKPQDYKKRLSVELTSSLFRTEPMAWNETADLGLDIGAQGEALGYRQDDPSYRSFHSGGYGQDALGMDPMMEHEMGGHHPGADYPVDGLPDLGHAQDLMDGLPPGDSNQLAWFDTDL

Key:
HA-VC155-Trim21 = HA-VC155-Trim21 (UniProt P19474); assay: split reporter; BiFC (Venus VN155/VC155) in HEK293T cells cotransfected with Myc-VN155-YAP1, HA-VC155-Trim21 and HA-cerulean; fixed, confocal microscopy
[1] = molecular target: T1, Trim21 (mouse (endogenous in MC3T3-E1)) (UniProt Q62191); assay: co-IP; endogenous proteins of MC3T3-E1 cells with or without osteogenic induction; lysed by sonication in Western and IP Lysis Buffer; antibodies against YAP1, BCL9, Trim21 or control IgG overnight at 4 °C, protein A agarose, five washes, immunoblotting
T1 sequence: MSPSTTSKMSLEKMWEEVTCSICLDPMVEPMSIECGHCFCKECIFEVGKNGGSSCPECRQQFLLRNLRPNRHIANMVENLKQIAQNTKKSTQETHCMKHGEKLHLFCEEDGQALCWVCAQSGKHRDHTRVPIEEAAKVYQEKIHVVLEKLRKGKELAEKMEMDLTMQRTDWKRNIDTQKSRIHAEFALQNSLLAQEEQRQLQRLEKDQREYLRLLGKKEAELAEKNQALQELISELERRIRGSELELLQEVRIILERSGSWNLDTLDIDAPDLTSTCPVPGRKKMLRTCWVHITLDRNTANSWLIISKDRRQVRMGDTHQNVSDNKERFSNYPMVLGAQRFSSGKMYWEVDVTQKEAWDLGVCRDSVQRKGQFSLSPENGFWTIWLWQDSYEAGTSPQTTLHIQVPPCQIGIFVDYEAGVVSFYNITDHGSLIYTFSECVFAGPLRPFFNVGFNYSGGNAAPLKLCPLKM

| binding (HA-VC155-Trim21) | binding [1] | Substance |
| --- | --- | --- |
| binds | – | Myc-VN155-YAP1 (from UniProt P46937 1-504) |
| – | binds | YAP1 (from UniProt P46938 1-488) |
| – | binds | β-catenin (from UniProt Q02248 1-781) |
